In all, about 33,000 sequences were measured (“E-score (-0.5 to 0.5)”: median about -0.0014, highest 2% from about 0.25 on). This is one part of the list.
These sequences were tested against T1, Cad1 (UniProt P24813) (assay: PBM E-score (8-mer binding enrichment) (E-score (-0.5 to 0.5)); higher = stronger / more preferred TF binding). Conditions: protein concentration: 100 nM; construct: GST-full length.
T1 sequence: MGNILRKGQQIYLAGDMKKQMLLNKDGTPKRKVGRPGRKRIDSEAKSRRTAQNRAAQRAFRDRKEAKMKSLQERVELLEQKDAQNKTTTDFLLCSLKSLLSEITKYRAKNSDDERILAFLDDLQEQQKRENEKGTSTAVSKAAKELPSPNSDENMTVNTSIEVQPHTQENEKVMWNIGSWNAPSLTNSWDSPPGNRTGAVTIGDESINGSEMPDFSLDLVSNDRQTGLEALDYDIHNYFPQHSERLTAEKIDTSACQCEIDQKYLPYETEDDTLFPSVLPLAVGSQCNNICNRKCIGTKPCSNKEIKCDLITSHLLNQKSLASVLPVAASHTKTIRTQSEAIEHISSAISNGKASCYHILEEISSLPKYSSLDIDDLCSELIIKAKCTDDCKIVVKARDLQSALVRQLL
Summary of the method: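 Universal all-10-mer Agilent arrays, double-stranded by primer extension on fresh or once-stripped slides, were probed with about 100-200 nM GST-tagged yeast transcription factors made by PURExpress. Fluorescent anti-GST detected bound protein, and masliner normalised the scans. E-scores from the Universal PBM Analysis Suite were given to each ungapped eight-base word pooled with its reverse complement.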

Sequence	PBM E-score
AGAATAAC	0.0467
GTAGAGAA	0.0517
AGCTCCCA	-0.195
ATTACTGC	0.203
CACGGTCC	-0.365
CCACTTCA	-0.152
ACCGTGCA	0.117
AACATCTA	-0.15
CCAGAATA	0.138
AAAAACTC	0.12
CCAACTAA	0.0925
GATTCTGC	0.0858
GTGGTAAA	0.126
CAGATTCA	-0.182
ACCCTTCC	-0.181
ATTGAAAA	0.224
ATCCCGAT	0.0794
GCTAATTA	0.306
GCGATCGA	0.248
ATCAAACG	0.139
ACTTCGGC	-0.0559
TCATACGA	0.0873

Sequence	PBM E-score
CTTTCATC	0.0102
GAGCTGAC	0.239
CGCGGCCC	-0.0151
GCCTTAAA	0.133
ACATGTGG	0.114
AAGTTGGA	-0.127
CGGAAGAC	0.146
CTTTAGCA	-0.122
ACCCATGG	-0.148
CGATATTA	0.352
CCATGAGG	-0.238
GCAGAAAA	0.123
CGTTAGGA	0.0257
CGGTTTAA	-0.119
CACTATTA	0.131
CATCAGAC	-0.00947
ACGCCCAT	-0.0524
CCAAGCAA	0.0285
CACGTGCC	0.0711
CTGTTTCC	-0.117
AGTTAGAG	-0.126
AATGATCC	-0.0772

Four entries from above, with each value named:
CGGTTTAA
  PBM E-score: -0.119
CACTATTA
  PBM E-score: 0.131
CATCAGAC
  PBM E-score: -0.00947
ACGCCCAT
  PBM E-score: -0.0524

Further results follow:

Sequence	PBM E-score
AGAACAAG	0.173
AAGTAGCT	-0.0432
GTTGTATA	0.11
AAGAGGCA	-0.116
ACGTGTGC	-0.212
AAAGTCGG	-0.0977
AGAATTGA	-0.0421
GTTAGTGA	-0.0153
CTGCGACC	-0.106
AACGCCGA	0.0975
TTATCCAA	0.189
GACGGAAC	0.0293
AGCAGTGG	-0.0575
AGGTCTGA	0.0845
AGAAAAAT	0.133
ACTCGAGG	0.107
CCTTGCCG	-0.0655
GACAGCGC	0.14
AGCGGAAC	0.144
CTAGCTTA	0.135
ATAGCGGA	-0.102
GGACAATA	0.161

Sequence	PBM E-score
ACTATAAT	0.0905
CACTATGA	-0.0728
CCCAACAC	-0.18
ACGTTGCG	0.199
CCACAAAA	0.0925
AGGAAATC	-0.0121
AAATCATC	-0.0859
GCCATAGC	-0.01
CCTGTAAC	0.0235
AGACTCTG	-0.0309
AAAAATGT	0.0351
GTCAGAAC	-0.0296
CAATATCA	0.0979
CAGCGGAA	0.0922
AGGTTACT	-0.0566
CACCCCGG	-0.344
GAAGACGC	-0.0488
AATCACAC	0.0391
GGAGTTAC	-0.0248
GACGATTA	0.14
